Results are given in words; binding and its absence hold for the method and conditions named. In cells and extracts the contact can be indirect. Some entries that bind do so weakly or less than the wild type.

Sequences of proteins named here, by UniProt entry; tags and fusion partners are left off.
UniProt P52332: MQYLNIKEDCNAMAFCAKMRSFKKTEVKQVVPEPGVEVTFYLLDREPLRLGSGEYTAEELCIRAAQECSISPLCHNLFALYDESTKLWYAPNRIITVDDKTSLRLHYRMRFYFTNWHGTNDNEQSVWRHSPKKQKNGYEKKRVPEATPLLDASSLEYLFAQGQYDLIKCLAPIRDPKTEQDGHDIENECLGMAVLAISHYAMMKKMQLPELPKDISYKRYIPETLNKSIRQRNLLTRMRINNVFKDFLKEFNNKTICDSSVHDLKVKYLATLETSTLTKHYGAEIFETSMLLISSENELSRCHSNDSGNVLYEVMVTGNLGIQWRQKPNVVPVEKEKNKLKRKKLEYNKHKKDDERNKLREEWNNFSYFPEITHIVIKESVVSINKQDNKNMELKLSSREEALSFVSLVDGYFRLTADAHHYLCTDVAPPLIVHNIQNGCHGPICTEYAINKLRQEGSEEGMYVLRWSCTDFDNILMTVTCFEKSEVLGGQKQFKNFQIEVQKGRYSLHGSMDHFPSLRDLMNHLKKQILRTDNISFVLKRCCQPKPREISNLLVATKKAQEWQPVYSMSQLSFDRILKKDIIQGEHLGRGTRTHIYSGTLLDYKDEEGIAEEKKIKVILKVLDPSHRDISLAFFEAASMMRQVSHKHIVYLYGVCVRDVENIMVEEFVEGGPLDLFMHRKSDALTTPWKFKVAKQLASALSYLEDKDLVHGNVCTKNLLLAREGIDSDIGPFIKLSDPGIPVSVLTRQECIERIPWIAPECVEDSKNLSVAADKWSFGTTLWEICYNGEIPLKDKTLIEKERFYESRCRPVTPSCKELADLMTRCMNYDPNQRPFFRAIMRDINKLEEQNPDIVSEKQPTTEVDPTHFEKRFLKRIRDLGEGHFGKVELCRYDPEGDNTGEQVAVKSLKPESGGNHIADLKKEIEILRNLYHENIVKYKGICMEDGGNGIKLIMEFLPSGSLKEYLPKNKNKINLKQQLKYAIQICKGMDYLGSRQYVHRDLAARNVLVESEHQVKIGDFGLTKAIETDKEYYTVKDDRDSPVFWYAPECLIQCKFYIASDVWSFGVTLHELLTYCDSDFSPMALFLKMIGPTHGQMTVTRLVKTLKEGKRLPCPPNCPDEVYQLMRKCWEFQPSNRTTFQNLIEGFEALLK

The target in the assay is Janus kinase 1 (mouse (endogenous in BMDMs)) (UniProt P52332). The experiment in a line: co-IP; BMDMs stimulated with IL-4 (20 ng/mL) for 30 min; NP-40 lysis buffer with protease and phosphatase inhibitors; 2 ug anti-JAK1 antibody (or mouse IgG) overnight at 4 °C, protein A/G magnetic beads, four washes, Western blot. A general note: A western blot detects proteins with antibodies after separation by electrophoresis.

B1: Signal Transducer And Activator Of Transcription 6 (protein, UniProt P52633 1-837)
chain: MSLWGLISKMSPEKLQRLYVDFPQRLRHLLADWLESQPWEFLVGSDAFCYNMASALLSATVQRLQATAGEQGKGNSILPHISTLESIYQRDPLKLVATIRQILQGEKKAVIEEFRHLPGPFHRKQEELKFTTALGRLQHRVRETRLLRESLQQGAKTGQVSLQNLIDPPVNGPGPSEDLATMLQGTVGDLEATQALVLKRIQIWKRQQQLAGNGTPFEESLAGLQERCESLVEIYSQLQQEIGAASGELEPKTRASLISRLDEVLRTLVTSSFLVEKQPPQVLKTQTKFQAGVRFLLGLQFLGTSAKPPMVRADMVTEKQARELSLAQGPGTGVESTGEIMNNTVPLENSIPSNCCSALFKNLLLKKIKRCERKGTESVTEEKCAVLFSTSFTLGPNKLLIQLQALSLPLVVIVHGNQDNNAKATILWDNAFSEMDRVPFVVAERVPWEKMCETLNLKFMAEVGTSRGLLPEHFLFLAQKIFNDNSLSVEAFQHRCVSWSQFNKEILLGRGFTFWQWFDGVLDLTKRCLRSYWSDRLIIGFISKQYVTSLLLNEPDGTFLLRFSDSEIGGITIAHVIRGQDGSSQIENIQPFSAKDLSIRSLGDRIRDLAQLKNLYPKKPKDEAFRSHYKPEQMGKDGRGYVSTTIKMTVERDQPLPTPEPQMPAMVPPYDLGMAPDASMQLSSDMGYPPQSIHSFQSLEESMSVLPSFQEPHLQMPPNMSQITMPFDQPHPQGLLQCQSQEHAVSSPEPMLCSDVTMVEDSCLTQPVGGFPQGTWVSEDMYPPLMPPTEQDLTKLLLENQGEAGGSLGSQPLLQPSPYGQSGISLSHLDLRTNPSW
With B1, the binding result is “binds”.

Values taken from PMC12823884.
